Chains of the proteins cited; added tags and fusions are not shown. Lines headed by an entry give the natural chain unless they say otherwise; changes in a name come on top.
UniProt P49773: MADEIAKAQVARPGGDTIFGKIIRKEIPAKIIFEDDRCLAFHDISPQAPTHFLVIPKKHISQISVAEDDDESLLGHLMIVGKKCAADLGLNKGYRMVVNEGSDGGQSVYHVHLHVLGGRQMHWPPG
UniProt Q15651: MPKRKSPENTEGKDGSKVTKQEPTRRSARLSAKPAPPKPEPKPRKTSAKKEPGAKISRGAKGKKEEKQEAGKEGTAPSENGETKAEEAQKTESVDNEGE
UniProt Q9Y547: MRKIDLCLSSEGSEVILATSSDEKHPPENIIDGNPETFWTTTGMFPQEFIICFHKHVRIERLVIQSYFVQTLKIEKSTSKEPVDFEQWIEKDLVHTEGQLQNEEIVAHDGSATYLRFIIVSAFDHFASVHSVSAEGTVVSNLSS
UniProt O60921: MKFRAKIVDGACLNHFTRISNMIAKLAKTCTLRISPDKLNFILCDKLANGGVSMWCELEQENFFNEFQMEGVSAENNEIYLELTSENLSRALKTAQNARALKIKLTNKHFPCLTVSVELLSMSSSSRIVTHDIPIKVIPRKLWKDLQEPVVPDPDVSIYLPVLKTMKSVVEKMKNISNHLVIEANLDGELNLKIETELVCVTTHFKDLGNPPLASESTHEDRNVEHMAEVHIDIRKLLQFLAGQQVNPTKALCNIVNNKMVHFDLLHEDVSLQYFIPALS
UniProt Q9NSB8: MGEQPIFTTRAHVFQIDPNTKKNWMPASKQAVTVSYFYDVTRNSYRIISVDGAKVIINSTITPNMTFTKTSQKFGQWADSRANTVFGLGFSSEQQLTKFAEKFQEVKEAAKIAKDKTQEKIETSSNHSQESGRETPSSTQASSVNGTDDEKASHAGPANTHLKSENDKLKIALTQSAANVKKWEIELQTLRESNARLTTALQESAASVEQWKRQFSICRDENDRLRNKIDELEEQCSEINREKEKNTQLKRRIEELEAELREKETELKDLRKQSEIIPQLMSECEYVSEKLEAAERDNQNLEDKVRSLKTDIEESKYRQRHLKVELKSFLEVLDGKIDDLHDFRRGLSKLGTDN
UniProt P17066, whole entry, looked up: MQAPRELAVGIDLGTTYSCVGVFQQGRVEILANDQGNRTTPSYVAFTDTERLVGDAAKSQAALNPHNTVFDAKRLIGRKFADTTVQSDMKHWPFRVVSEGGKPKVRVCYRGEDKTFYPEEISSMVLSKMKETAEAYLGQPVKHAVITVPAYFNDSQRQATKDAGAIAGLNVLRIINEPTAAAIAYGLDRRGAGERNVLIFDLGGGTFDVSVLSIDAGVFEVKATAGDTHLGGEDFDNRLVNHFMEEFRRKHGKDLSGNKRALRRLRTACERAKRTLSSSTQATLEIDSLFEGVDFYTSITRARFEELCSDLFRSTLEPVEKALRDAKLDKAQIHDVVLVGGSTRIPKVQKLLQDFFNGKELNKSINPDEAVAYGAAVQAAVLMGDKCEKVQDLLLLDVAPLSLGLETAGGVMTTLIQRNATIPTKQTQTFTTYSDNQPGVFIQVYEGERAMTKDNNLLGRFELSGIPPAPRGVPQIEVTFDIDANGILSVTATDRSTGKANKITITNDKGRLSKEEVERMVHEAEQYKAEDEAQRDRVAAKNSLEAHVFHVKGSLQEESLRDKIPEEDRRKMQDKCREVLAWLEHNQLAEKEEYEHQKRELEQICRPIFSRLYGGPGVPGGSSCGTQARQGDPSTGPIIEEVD
UniProt P52789: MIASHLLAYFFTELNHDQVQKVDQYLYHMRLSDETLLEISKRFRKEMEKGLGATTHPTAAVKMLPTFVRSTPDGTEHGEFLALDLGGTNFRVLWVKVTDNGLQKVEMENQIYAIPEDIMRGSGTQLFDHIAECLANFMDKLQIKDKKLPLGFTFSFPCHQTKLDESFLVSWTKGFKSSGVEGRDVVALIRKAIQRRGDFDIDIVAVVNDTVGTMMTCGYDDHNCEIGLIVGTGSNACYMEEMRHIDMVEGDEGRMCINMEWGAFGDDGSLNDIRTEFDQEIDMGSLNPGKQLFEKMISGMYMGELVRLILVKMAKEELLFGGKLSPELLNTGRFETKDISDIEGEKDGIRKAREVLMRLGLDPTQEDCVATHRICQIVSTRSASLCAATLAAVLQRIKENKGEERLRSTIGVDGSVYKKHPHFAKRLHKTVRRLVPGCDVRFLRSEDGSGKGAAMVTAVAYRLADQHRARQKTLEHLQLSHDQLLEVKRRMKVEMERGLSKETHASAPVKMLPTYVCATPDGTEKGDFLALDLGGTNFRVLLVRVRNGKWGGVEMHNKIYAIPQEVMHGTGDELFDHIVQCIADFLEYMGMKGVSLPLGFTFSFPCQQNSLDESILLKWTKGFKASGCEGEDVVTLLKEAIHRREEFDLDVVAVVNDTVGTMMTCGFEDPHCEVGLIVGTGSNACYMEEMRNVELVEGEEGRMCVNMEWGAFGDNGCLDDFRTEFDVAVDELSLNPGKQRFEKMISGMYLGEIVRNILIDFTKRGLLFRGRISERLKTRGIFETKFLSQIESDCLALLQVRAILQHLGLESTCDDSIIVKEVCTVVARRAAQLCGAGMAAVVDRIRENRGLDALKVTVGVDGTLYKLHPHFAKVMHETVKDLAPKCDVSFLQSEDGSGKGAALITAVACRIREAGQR
UniProt Q01581: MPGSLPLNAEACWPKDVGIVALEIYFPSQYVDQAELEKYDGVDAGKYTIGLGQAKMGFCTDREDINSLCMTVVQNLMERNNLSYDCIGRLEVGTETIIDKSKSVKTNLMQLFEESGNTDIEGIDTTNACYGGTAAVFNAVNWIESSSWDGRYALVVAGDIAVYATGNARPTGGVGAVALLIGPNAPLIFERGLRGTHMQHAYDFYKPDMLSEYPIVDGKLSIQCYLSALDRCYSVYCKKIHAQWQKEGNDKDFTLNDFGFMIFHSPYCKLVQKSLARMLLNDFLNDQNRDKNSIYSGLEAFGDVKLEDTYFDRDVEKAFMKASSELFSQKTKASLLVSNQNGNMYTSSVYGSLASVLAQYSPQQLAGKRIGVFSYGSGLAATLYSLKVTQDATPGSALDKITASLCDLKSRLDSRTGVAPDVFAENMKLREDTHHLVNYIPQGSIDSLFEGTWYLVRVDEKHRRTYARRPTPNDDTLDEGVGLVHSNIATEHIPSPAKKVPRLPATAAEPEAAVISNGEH
UniProt Q13151: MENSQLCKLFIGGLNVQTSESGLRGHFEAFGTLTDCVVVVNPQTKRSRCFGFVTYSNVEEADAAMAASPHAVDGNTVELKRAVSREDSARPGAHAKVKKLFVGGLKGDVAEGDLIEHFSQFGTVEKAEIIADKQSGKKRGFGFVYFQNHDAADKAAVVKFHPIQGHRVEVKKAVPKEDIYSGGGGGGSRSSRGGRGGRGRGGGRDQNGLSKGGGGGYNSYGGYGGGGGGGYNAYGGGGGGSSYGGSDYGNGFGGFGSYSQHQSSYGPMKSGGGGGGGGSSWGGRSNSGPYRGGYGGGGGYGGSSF
UniProt Q92902: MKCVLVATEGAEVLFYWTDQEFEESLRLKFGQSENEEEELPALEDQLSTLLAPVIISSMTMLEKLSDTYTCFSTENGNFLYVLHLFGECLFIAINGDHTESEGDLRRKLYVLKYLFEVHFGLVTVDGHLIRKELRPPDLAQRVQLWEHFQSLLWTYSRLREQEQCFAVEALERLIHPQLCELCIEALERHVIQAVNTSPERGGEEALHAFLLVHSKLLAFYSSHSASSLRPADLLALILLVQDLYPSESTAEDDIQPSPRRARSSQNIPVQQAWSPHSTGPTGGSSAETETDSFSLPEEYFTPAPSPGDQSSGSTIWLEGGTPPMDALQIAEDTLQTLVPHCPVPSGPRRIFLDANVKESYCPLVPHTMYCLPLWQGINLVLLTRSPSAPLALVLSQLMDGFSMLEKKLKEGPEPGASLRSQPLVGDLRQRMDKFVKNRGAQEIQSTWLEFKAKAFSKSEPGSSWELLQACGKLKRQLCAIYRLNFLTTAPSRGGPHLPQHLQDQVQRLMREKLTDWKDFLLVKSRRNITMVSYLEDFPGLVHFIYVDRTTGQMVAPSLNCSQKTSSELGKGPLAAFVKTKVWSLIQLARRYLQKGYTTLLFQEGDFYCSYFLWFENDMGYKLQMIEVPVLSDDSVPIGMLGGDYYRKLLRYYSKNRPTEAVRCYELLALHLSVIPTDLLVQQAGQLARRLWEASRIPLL
UniProt O43464: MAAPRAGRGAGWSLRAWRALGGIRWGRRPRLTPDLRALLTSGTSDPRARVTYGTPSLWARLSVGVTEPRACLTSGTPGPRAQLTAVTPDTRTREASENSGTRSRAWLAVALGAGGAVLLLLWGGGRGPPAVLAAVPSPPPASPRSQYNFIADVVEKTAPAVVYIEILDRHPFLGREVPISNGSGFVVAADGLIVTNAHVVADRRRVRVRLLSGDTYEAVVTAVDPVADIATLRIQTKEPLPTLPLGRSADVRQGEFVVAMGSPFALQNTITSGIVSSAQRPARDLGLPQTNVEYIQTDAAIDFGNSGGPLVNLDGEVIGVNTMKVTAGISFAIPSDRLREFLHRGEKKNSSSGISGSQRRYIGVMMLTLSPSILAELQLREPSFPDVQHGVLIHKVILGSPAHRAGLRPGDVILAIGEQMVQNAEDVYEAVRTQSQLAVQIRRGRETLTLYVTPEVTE
UniProt O43390: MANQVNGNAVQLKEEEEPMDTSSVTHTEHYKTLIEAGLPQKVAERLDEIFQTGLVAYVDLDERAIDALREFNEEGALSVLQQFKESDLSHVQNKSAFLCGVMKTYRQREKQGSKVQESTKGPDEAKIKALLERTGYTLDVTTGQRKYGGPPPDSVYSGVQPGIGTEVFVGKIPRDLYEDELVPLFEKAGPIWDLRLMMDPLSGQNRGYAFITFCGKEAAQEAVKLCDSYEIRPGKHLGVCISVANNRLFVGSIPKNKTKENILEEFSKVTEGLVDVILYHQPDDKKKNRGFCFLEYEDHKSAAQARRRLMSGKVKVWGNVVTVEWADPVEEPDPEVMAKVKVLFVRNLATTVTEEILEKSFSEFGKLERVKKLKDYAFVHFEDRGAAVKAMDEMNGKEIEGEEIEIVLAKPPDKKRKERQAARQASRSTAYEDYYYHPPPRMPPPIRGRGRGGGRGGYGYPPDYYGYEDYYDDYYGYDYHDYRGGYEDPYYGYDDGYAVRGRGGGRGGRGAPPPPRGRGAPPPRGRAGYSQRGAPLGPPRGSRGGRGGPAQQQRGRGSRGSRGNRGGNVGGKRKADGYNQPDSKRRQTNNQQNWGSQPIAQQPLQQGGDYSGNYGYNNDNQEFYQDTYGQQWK
UniProt P34931, whole entry, looked up: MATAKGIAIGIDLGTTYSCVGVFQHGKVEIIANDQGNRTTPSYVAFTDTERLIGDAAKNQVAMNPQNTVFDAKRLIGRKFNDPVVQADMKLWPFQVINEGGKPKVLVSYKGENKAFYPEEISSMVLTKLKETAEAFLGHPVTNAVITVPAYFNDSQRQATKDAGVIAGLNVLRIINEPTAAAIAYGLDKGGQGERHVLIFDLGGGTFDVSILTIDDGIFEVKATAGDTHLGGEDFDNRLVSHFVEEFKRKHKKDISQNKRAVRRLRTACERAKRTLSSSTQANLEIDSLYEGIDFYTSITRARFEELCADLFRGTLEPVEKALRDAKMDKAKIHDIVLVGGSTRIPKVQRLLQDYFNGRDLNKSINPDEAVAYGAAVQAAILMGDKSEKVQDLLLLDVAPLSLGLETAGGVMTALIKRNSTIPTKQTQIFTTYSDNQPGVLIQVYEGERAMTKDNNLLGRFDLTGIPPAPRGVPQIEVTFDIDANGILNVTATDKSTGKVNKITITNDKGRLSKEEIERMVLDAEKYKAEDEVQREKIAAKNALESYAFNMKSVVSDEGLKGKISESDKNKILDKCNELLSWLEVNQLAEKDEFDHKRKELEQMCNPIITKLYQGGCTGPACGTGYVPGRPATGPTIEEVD
UniProt P61604, whole entry, looked up: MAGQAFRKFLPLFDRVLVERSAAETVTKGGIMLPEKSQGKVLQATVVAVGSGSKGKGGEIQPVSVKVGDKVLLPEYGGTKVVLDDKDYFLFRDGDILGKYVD
UniProt Q7LGA3: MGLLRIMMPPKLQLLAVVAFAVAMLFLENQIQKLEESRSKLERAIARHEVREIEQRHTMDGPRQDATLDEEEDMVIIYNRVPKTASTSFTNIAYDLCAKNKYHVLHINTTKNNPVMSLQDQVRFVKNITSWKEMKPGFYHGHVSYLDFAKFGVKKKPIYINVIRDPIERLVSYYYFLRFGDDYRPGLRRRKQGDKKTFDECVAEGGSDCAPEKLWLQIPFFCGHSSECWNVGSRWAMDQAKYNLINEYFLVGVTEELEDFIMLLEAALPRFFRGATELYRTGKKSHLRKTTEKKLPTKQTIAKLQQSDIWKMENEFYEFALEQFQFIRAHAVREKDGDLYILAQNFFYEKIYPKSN
UniProt P00492: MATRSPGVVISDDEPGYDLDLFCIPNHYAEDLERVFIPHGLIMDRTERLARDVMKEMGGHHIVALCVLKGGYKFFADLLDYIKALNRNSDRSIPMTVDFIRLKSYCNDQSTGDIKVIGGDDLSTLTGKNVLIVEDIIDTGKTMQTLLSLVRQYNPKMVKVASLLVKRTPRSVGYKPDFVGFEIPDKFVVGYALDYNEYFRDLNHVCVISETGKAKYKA

This is one part of the list.
The targets below were run with c1cn2cc(-c3ccc4cn[nH]c4c3)nc(Nc3ccc(N4CCOCC4)cc3)c2n1 [entospletinib] (assay: log2 fold change, soluble protein after heating vs DMSO (PISA); higher = thermal stabilisation; K562 cells, 10 uM, 30 min; active = over 0.2 and 3.5 SD of the protein, either way, in both replicates (recomputed)).
Procedure, shortened: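 Values are thermal stability changes relative to control samples and are taken from duplicates. They are stated as log2 fold changes. Before quantification by TMTpro 16plex LC-MS/MS with equalised channel sums, K562 cells at 2×10^6 cells/mL were treated with 10 μM compound for 30 min, heated in aliquots for 3 min across 48°C-58°C, pooled, extracted in PBS with 0.5% NP-40 at 4°C, and centrifuged at 21,000xg for 90 min to give the soluble supernatant.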
With HINT1 (UniProt P49773) the log2 fold change was inactive: 0.065.
HTD2 (UniProt P86397) was tested, and the log2 fold change was inactive: -0.163.
For HMGN3 (UniProt Q15651), the log2 fold change was inactive: 0.012.
HSPB11 (UniProt Q9Y547) was tested, and the log2 fold change was inactive: -0.002.
With HMGN4 (UniProt O00479) the log2 fold change was inactive: -0.068.
In the case of HUS1 (UniProt O60921), the log2 fold change is reported as inactive: -0.006.
With HUWE1 (UniProt Q7Z6Z7) the log2 fold change was inactive: 0.01.
HMMR isoform 3 (UniProt O75330) was tested, and the log2 fold change was inactive: 0.053.
In the case of HSPA14 (UniProt Q0VDF9), the log2 fold change is reported as inactive: -0.018.
HOMER2 (UniProt Q9NSB8) was tested, and the log2 fold change was inactive: 0.012.
In the case of HSPA6 (UniProt P17066), the log2 fold change is reported as inactive: 0.025.
For HSF1 (UniProt Q00613), the log2 fold change was inactive: -0.027.
For HK2 (UniProt P52789), the log2 fold change was active: -0.54.
With HMGCS1 (UniProt Q01581) the log2 fold change was inactive: -0.029.
In the case of HNRNPA0 (UniProt Q13151), the log2 fold change is reported as inactive: 0.136.
With HPS1 (UniProt Q92902) the log2 fold change was inactive: -0.181.
With HTRA2 (UniProt O43464) the log2 fold change was inactive: -0.003.
With HOOK1 (UniProt Q9UJC3) the log2 fold change was inactive: 0.138.
For HNRNPR (UniProt O43390), the log2 fold change was inactive: 0.106.
With HMGB1 (UniProt P09429) the log2 fold change was inactive: -0.004.
For HSPA1L (UniProt P34931), the log2 fold change was inactive: 0.05.
In the case of HSPE1 (UniProt P61604), the log2 fold change is reported as inactive: -0.001.
In the case of HS2ST1 (UniProt Q7LGA3), the log2 fold change is reported as inactive: 0.03.
For HPRT1 (UniProt P00492), the log2 fold change was inactive: -0.016.

From the supplement of paper PMC10849652
